This note sets out measurements from the supplement of paper PMC10849652.

Protein sequences, listed by entry. Tags and fused reporters are not part of them. Lines headed by an entry give the natural chain unless they say otherwise; changes in a name come on top.
UniProt Q9Y689: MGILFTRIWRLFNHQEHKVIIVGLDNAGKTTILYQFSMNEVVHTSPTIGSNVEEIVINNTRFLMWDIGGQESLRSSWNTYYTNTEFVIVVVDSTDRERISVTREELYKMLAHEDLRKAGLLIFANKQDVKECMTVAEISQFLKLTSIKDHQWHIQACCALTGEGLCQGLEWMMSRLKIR
UniProt P84077: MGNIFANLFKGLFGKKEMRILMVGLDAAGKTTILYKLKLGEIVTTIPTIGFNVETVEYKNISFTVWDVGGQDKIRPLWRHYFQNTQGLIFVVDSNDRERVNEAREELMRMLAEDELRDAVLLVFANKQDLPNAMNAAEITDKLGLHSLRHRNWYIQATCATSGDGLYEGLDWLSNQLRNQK
UniProt Q9H6L4: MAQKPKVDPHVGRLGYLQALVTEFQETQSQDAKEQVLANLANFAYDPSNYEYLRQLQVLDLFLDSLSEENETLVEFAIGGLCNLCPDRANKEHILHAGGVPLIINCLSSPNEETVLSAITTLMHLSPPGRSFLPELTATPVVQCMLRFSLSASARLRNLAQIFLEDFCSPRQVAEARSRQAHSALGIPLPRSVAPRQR
UniProt Q53QZ3: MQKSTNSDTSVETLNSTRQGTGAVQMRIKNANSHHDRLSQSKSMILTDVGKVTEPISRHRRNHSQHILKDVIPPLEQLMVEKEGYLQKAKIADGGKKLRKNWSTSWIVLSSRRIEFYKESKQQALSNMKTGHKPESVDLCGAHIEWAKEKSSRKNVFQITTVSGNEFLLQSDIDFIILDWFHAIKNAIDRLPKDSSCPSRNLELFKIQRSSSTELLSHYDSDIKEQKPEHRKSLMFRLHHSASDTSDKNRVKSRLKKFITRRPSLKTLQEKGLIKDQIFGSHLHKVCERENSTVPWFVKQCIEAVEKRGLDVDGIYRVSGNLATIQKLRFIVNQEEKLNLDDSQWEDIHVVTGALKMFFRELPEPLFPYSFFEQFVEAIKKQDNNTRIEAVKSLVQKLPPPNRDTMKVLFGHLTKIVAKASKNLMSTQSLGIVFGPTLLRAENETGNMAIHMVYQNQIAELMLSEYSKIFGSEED
UniProt P53367: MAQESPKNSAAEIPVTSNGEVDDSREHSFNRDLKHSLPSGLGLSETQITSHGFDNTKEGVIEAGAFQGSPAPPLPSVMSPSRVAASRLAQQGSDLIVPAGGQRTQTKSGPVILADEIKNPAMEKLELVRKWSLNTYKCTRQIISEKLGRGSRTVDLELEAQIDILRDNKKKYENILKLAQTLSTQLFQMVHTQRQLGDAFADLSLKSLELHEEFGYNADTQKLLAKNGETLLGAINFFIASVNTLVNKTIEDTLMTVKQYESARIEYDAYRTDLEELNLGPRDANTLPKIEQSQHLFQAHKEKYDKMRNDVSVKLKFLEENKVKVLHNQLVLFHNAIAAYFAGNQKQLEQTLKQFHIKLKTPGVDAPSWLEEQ
UniProt P02656: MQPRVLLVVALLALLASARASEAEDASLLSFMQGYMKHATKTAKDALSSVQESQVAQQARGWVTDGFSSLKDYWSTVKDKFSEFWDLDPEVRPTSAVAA
UniProt Q92624: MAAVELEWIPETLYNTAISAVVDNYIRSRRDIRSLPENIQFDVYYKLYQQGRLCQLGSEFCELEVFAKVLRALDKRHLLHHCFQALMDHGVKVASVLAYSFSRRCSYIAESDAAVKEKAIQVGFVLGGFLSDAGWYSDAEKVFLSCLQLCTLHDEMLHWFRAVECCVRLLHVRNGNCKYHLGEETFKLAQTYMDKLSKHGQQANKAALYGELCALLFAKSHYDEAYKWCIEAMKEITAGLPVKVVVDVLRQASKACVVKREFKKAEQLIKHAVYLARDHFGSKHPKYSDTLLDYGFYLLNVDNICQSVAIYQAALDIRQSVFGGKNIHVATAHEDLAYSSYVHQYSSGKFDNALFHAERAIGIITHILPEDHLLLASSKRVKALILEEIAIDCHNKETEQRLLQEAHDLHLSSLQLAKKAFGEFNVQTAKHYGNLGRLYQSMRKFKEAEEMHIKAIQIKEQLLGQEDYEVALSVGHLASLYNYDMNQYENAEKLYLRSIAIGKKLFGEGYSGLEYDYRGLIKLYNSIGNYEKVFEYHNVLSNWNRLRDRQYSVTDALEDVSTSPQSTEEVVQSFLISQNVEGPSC
UniProt P18085: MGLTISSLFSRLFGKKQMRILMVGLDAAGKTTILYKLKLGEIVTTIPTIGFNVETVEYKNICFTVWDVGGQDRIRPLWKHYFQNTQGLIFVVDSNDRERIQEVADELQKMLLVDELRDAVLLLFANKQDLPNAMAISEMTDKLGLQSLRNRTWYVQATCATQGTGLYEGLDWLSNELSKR
UniProt Q93070: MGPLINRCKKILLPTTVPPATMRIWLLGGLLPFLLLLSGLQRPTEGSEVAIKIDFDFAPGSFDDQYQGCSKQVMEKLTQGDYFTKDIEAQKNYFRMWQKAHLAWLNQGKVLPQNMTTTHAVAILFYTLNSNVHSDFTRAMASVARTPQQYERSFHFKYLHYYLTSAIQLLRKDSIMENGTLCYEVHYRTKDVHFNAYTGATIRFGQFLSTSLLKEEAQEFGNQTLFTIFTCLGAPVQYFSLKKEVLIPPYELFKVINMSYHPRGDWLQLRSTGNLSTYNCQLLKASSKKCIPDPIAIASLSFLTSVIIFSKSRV
UniProt Q7Z5H3: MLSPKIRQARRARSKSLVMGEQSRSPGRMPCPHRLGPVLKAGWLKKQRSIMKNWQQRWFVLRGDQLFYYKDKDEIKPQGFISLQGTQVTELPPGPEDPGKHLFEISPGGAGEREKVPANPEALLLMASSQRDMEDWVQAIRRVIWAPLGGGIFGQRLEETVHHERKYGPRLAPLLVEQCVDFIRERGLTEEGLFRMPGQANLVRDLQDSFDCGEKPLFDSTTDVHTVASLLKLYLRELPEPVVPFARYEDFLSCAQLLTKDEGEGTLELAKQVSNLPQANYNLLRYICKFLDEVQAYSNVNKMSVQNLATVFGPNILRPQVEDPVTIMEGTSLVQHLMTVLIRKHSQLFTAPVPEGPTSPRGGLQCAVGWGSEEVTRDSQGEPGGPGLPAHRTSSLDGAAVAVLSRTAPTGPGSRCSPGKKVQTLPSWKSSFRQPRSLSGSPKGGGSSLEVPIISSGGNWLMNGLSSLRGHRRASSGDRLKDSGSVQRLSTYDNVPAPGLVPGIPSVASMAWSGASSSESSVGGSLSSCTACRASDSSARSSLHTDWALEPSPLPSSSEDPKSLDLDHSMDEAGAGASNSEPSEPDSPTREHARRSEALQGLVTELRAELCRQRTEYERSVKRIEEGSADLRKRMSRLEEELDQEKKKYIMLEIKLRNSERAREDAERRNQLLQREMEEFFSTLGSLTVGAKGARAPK
UniProt Q9H2C2: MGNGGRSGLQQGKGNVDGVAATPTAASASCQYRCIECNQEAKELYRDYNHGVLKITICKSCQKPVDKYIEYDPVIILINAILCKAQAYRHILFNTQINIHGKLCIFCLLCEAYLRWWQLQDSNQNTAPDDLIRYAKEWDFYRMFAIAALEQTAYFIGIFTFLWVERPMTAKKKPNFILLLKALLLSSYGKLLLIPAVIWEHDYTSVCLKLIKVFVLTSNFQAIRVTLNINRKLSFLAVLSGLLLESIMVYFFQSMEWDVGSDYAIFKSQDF
UniProt P07741: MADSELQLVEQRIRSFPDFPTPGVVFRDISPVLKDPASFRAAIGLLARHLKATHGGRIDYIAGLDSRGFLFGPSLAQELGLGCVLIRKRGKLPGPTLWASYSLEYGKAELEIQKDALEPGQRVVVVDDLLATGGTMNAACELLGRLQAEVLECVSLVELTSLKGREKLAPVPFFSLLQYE

Common to all, as to test: log2 fold change, soluble protein after heating vs DMSO (PISA); higher = thermal stabilisation; K562 lysate, 10 uM; active = over 0.2 and 3.5 SD of the protein, either way, in both replicates (recomputed)
Compound in test [1]: NCC(=O)Nc1ccc(-n2nc(C(F)(F)F)cc2-c2ccc3c(ccc4ccccc43)c2)cc1
An outline of the steps:
(§1)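 A 30 min treatment with 10 μM compound was applied to crude K562 extract at 1 mg/mL protein in PBS pH 7.4 with 1 mM MgCl2. Heating for 3 min spanned 48°C-58°C, after which aliquots were pooled, adjusted to 0.5% NP-40 at 4°C and spun at 21,000xg for 90 min. TMTpro 16plex LC-MS/MS of the supernatant, with channel sums equalised, gave values recorded as log-two fold change in thermal stability against solvent controls, from duplicates.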

Compound in test [2]: O=C1NC(=O)C(c2cnc3ccccn23)=C1c1cn2c3c(cc(F)cc13)CN(C(=O)N1CCCCC1)CC2
A digest of the protocol:
as §1

Compound in a further test: c1cn2cc(-c3ccc4cn[nH]c4c3)nc(Nc3ccc(N4CCOCC4)cc3)c2n1 [entospletinib]
An outline of the steps: as §1

Compound in another test: O=C(CCCCCCC(=O)Nc1ccccc1)NO [vorinostat]
A digest of the protocol: as §1

Compound in a further test: O=C(O)c1ccc2c(c1)nc(Nc1cccc(Cl)c1)c1ccncc12 [silmitasertib]
A digest of the protocol: as §1

This is one part of the list.

Consider ARL5A (UniProt Q9Y689), for which the values for the log2 fold change (in test [1]; in test [2]; with entospletinib) were inactive: -0.119, inactive: 0.057 and inactive: 0.112, respectively.
On to ARF1 (UniProt P84077), for which the log2 fold change in the test with vorinostat was inactive: 0.107; with silmitasertib, inactive: -0.705; in test [2], inactive: -0.023.
With ARMC8 (UniProt C9JAA7), the log2 fold change with entospletinib is inactive: -0.025.
Turning to ARMC7 (UniProt Q9H6L4), the log2 fold change in test [1] is inactive: -0.173; in test [2], inactive: 0.091.
In the case of ARHGAP15 (UniProt Q53QZ3), the results for the log2 fold change (in test [2]; with entospletinib) were inactive: -0.215 and inactive: 0.006, respectively.
ARFIP1 isoform 2 (UniProt P53367): the log2 fold change in test [1] is inactive: -0.086; in the test with entospletinib, inactive: -0.028.
For the target APOC3 (UniProt P02656), the log2 fold change in test [1] was inactive: 0.095; in test [2], inactive: -0.124; with entospletinib, inactive: -0.132.
Turning to APPBP2 (UniProt Q92624), the log2 fold change with vorinostat was inactive: -0.077; in the test with silmitasertib, inactive: -0.042; in test [2], inactive: 0.028.
For the target ARF4 (UniProt P18085), the log2 fold change was inactive: -0.063 in test [1]; inactive: 0.024 with vorinostat; inactive: -0.036 in the test with silmitasertib; inactive: -0.038 in test [2]; inactive: 0.018 in the test with entospletinib.
For the target ART4 (UniProt Q93070), the log2 fold change in test [1] is inactive: 0.014; with entospletinib, inactive: -0.064.
In the case of ARHGAP22 isoform 2 (UniProt Q7Z5H3), the log2 fold change was inactive: 0.146 with vorinostat, inactive: -0.108 with silmitasertib, inactive: 0.21 in test [2] and inactive: 0.019 in the test with entospletinib.
On to ARV1 (UniProt Q9H2C2), for which the figures for the log2 fold change (in test [1]; in test [2]; with entospletinib) were inactive: -0.096, inactive: -0.014 and inactive: -0.051, respectively.
APRT (UniProt P07741): the log2 fold change in test [1] is inactive: 0.001; with vorinostat, inactive: 0.155; in the test with silmitasertib, inactive: -0.007; in test [2], inactive: 0.024; in the test with entospletinib, inactive: 0.02.
